This is an account of results in patent US6911526B2, “Compounds that inhibit the interaction between signal-transducing proteins and the GLGF (PDZ/DHR) domain and uses thereof” (The Trustees of Columbia University in the City of New York, priority 1996, dated 2005).

Amino acid sequences for entries named in this document (tags omitted). Residues count along the entry.
UniProt Q12923, residues 1279-1883: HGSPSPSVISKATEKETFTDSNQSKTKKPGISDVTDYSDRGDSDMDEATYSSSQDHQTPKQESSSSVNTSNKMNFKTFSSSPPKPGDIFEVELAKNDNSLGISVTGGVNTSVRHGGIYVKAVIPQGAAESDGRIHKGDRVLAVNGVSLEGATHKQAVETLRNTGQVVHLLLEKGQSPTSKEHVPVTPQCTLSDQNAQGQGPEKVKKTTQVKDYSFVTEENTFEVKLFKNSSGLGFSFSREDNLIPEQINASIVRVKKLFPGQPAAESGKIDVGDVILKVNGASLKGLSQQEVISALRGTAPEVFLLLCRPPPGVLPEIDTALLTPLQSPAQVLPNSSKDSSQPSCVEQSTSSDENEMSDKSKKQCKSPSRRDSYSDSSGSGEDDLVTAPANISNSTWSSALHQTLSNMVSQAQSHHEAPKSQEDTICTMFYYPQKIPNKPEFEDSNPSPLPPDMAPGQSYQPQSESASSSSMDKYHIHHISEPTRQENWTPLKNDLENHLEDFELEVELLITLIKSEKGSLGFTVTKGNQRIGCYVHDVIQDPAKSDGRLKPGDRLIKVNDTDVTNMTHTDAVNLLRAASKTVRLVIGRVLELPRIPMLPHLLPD

These are yes or no findings as the source states them, for the method shown. Some binding calls cover weakened binding; strength is not graded here.

For assay [1], the target named is in vitro-translated 35S-labeled FAP-1 (from HFAP-10 cDNA) (UniProt Q12923). Nature of the assay: competition: acetylated peptide against GST-Fas for 35S FAP-1.
The target is the same in assay [2]. Put plainly: competition: acetylated truncated peptides (FIG. 3B) against GST-Fas for 35S FAP-1.
The target is the same in assay [3]. Put plainly: competition: peptide (1-1000 uM) against GST-Fas for 35S FAP-1.

B1: NEIQSLV (SEQ ID NO: 21), acetylated truncated C-terminal peptide of Fas (peptide)
peptide: NEIQSLV
modifications: N-terminal acetyl
Consider B1, for which the binding result in assay [1] was “binds”.

B2: synthetic peptide of the C-terminal 15 amino acids of Fas (peptide)
peptide: DSENSNFRNEIQSLV
modifications: N-terminal acetyl
B2: the binding result in assay [2] and in assay [3] was “binds” each time.

B3: EIQSLV (SEQ ID NO: 20), acetylated truncated C-terminal peptide of Fas (peptide)
peptide: EIQSLV
modifications: N-terminal acetyl
Regarding B3, in assay [1], the binding entry is “binds”.

B4: IQSLV (SEQ ID NO: 19), acetylated truncated C-terminal peptide of Fas (peptide)
peptide: IQSLV
modifications: N-terminal acetyl
Regarding B4, the binding result in assay [1] is given as “binds”.

B5: RNEIQSLV (SEQ ID NO: 22), acetylated truncated C-terminal peptide of Fas (peptide)
peptide: RNEIQSLV
modifications: N-terminal acetyl
For the molecule B5, in assay [1], the binding entry was “binds”.
